Test results: PMC11605229
These are yes or no findings as the source states them, for the method shown. Binding seen in cells or lysates may run through a third protein. A yes stands for co-enrichment or nearness to the bait. Other partners may have been found.

B1: TST (protein, UniProt Q16762 1-297)
chain: MVHQVLYRALVSTKWLAESIRTGKLGPGLRVLDASWYSPGTREARKEYLERHVPGASFFDIEECRDTASPYEMMLPSEAGFAEYVGRLGISNHTHVVVYDGEHLGSFYAPRVWWMFRVFGHRTVSVLNGGFRNWLKEGHPVTSEPSRPEPAVFKATLDRSLLKTYEQVLENLESKRFQLVDSRSQGRFLGTEPEPDAVGLDSGHIRGAVNMPFMDFLTEDGFEKGPEELRALFQTKKVDLSQPLIATCRKGVTACHVALAAYLCGKPDVAVYDGSWSEWFRRAPPESRVSQGKSEKA
B2: CASP4 (protein, UniProt P49662 1-377)
chain: MAEGNHRKKPLKVLESLGKDFLTGVLDNLVEQNVLNWKEEEKKKYYDAKTEDKVRVMADSMQEKQRMAGQMLLQTFFNIDQISPNKKAHPNMEAGPPESGESTDALKLCPHEEFLRLCKERAEEIYPIKERNNRTRLALIICNTEFDHLPPRNGADFDITGMKELLEGLDYSVDVEENLTARDMESALRAFATRPEHKSSDSTFLVLMSHGILEGICGTVHDEKKPDVLLYDTIFQIFNNRNCLSLKDKPKVIIVQACRGANRGELWVRDSPASLEVASSQSSENLEEDAVYKTHVEKDFIAFCSSTPHNVSWRDSTMGSIFITQLITCFQKYSWCCHLEEVFRKVQQSFETPRAKAQMPTIERLSMTRYFYLFPGN
B3: MIF (protein, UniProt P14174 1-115)
chain: MPMFIVNTNVPRASVPDGFLSELTQQLAQATGKPPQYIAVHVVPDQLMAFGGSSEPCALCSLHSIGKIGGAQNRSYSKLLCGLLAERLRISPDRVYINYYDMNAANVGWNNSTFA
B4: BID (protein, UniProt P55957 1-195)
chain: MDCEVNNGSSLRDECITNLLVFGFLQSCSDNSFRRELDALGHELPVLAPQWEGYDELQTDGNRSSHSRLGRIEADSESQEDIIRNIARHLAQVGDSMDRSIPPGLVNGLALQLRNTSRSEEDRNRDLATALEQLLQAYPRDMEKEKTMLVLALLLAKKVASHTPSLLRDVFHTTVNFINQNLRTYVRSLARNGMD
B5: PRDX5 (protein, UniProt P30044 53-214)
chain: MAPIKVGDAIPAVEVFEGEPGNKVNLAELFKGKKGVLFGVPGAFTPGCSKTHLPGFVEQAEALKAKGVQVVACLSVNDAFVTGEWGRAHKAEGKVRLLADPTGAFGKETDLLLDDSLVSIFGNRRLKRFSMVVQDGIVKALNVEPDGTGLTCSLAPNIISQL
B6: MDH2 (protein, UniProt P40926 25-338)
chain: AKVAVLGASGGIGQPLSLLLKNSPLVSRLTLYDIAHTPGVAADLSHIETKAAVKGYLGPEQLPDCLKGCDVVVIPAGVPRKPGMTRDDLFNTNATIVATLTAACAQHCPEAMICVIANPVNSTIPITAEVFKKHGVYNPNKIFGVTTLDIVRANTFVAELKGLDPARVNVPVIGGHAGKTIIPLISQCTPKVDFPQDQLTALTGRIQEAGTEVVKAKAGAGSATLSMAYAGARFVFSLVDAMNGKEGVVECSFVKSQETECTYFSTPLLLGKKGIEKNLGIGKVSSFEEKMISDAIPELKASIKKGEDFVKTLK
B7: NME3 (protein, UniProt Q13232 1-169)
chain: MICLVLTIFANLFPAACTGAHERTFLAVKPDGVQRRLVGEIVRRFERKGFKLVALKLVQASEELLREHYAELRERPFYGRLVKYMASGPVVAMVWQGLDVVRTSRALIGATNPADAPPGTIRGDFCIEVGKNLIHGSDSVESARREIALWFRADELLCWEDSAGHWLYE
B8: UROD (protein, UniProt P06132 1-367)
chain: MEANGLGPQGFPELKNDTFLRAAWGEETDYTPVWCMRQAGRYLPEFRETRAAQDFFSTCRSPEACCELTLQPLRRFPLDAAIIFSDILVVPQALGMEVTMVPGKGPSFPEPLREEQDLERLRDPEVVASELGYVFQAITLTRQRLAGRVPLIGFAGAPWTLMTYMVEGGGSSTMAQAKRWLYQRPQASHQLLRILTDALVPYLVGQVVAGAQALQLFESHAGHLGPQLFNKFALPYIRDVAKQVKARLREAGLAPVPMIIFAKDGHFALEELAQAGYEVVGLDWTVAPKKARECVGKTVTLQGNLDPCALYASEEEIGQLVKQMLDDFGPHRYIANLGHGLYPDMDPEHVGAFVDAVHKHSRLLRQN
B9: PUS7 (protein, UniProt Q96PZ0 1-661)
chain: MEMTEMTGVSLKRGALVVEDNDSGVPVEETKKQKLSECSLTKGQDGLQNDFLSISEDVPRPPDTVSTGKGGKNSEAQLEDEEEEEEDGLSEECEEEESESFADMMKHGLTEADVGITKFVSSHQGFSGILKERYSDFVVHEIGKDGRISHLNDLSIPVDEEDPSEDIFTVLTAEEKQRLEELQLFKNKETSVAIEVIEDTKEKRTIIHQAIKSLFPGLETKTEDREGKKYIVAYHAAGKKALANPRKHSWPKSRGSYCHFVLYKENKDTMDAINVLSKYLRVKPNIFSYMGTKDKRAITVQEIAVLKITAQRLAHLNKCLMNFKLGNFSYQKNPLKLGELQGNHFTVVLRNITGTDDQVQQAMNSLKEIGFINYYGMQRFGTTAVPTYQVGRAILQNSWTEVMDLILKPRSGAEKGYLVKCREEWAKTKDPTAALRKLPVKRCVEGQLLRGLSKYGMKNIVSAFGIIPRNNRLMYIHSYQSYVWNNMVSKRIEDYGLKPVPGDLVLKGATATYIEEDDVNNYSIHDVVMPLPGFDVIYPKHKIQEAYREMLTADNLDIDNMRHKIRDYSLSGAYRKIIIRPQNVSWEVVAYDDPKIPLFNTDVDNLEGKTPPVFASEGKYRALKMDFSLPPSTYATMAIREVLKMDTSIKNQTQLNTTWLR
B10: ANXA1 (protein, UniProt P04083 1-346)
chain: MAMVSEFLKQAWFIENEEQEYVQTVKSSKGGPGSAVSPYPTFNPSSDVAALHKAIMVKGVDEATIIDILTKRNNAQRQQIKAAYLQETGKPLDETLKKALTGHLEEVVLALLKTPAQFDADELRAAMKGLGTDEDTLIEILASRTNKEIRDINRVYREELKRDLAKDITSDTSGDFRNALLSLAKGDRSEDFGVNEDLADSDARALYEAGERRKGTDVNVFNTILTTRSYPQLRRVFQKYTKYSKHDMNKVLDLELKGDIEKCLTAIVKCATSKPAFFAEKLHQAMKGVGTRHKALIRIMVSRSEIDMNDIKAFYQKMYGISLCQAILDETKGDYEKILVALCGGN
B11: PRSS3 (protein, UniProt P35030 81-304)
chain: IVGGYTCEENSLPYQVSLNSGSHFCGGSLISEQWVVSAAHCYKTRIQVRLGEHNIKVLEGNEQFINAAKIIRHPKYNRDTLDNDIMLIKLSSPAVINARVSTISLPTTPPAAGTECLISGWGNTLSFGADYPDELKCLDAPVLTQAECKASYPGKITNSMFCVGFLEGGKDSCQRDSGGPVVCNGQLQGVVSWGHGCAWKNRPGVYTKVYNYVDWIKDTIAANS
B12: Hsp70-binding protein 1 (protein, UniProt Q9NZL4 1-359)
chain: MSDEGSRGSRLPLALPPASQGCSSGGGGGGSSAGGSGNSRPPRNLQGLLQMAITAGSEEPDPPPEPMSEERRQWLQEAMSAAFRGQREEVEQMKSCLRVLSQPMPPTAGEAEQAADQQEREGALELLADLCENMDNAADFCQLSGMHLLVGRYLEAGAAGLRWRAAQLIGTCSQNVAAIQEQVLGLGALRKLLRLLDRDACDTVRVKALFAISCLVREQEAGLLQFLRLDGFSVLMRAMQQQVQKLKVKSAFLLQNLLVGHPEHKGTLCSMGMVQQLVALVRTEHSPFHEHVLGALCSLVTDFPQGVRECREPELGLEELLRHRCQLLQQHEEYQEELEFCEKLLQTCFSSPADDSMDR
B13: PRPF4 (protein, UniProt O43172 1-522)
chain: MASSRASSTQATKTKAPDDLVAPVVKKPHIYYGSLEEKERERLAKGESGILGKDGLKAGIEAGNINITSGEVFEIEEHISERQAEVLAEFERRKRARQINVSTDDSEVKACLRALGEPITLFGEGPAERRERLRNILSVVGTDALKKTKKDDEKSKKSKEEYQQTWYHEGPNSLKVARLWIANYSLPRAMKRLEEARLHKEIPETTRTSQMQELHKSLRSLNNFCSQIGDDRPISYCHFSPNSKMLATACWSGLCKLWSVPDCNLLHTLRGHNTNVGAIVFHPKSTVSLDPKDVNLASCAADGSVKLWSLDSDEPVADIEGHTVRVARVMWHPSGRFLGTTCYDRSWRLWDLEAQEEILHQEGHSMGVYDIAFHQDGSLAGTGGLDAFGRVWDLRTGRCIMFLEGHLKEIYGINFSPNGYHIATGSGDNTCKVWDLRQRRCVYTIPAHQNLVTGVKFEPIHGNFLLTGAYDNTAKIWTHPGWSPLKTLAGHEGKVMGLDISSDGQLIATCSYDRTFKLWMAE
B14: CSRP1 (protein, UniProt P21291 1-193)
chain: MPNWGGGKKCGVCQKTVYFAEEVQCEGNSFHKSCFLCMVCKKNLDSTTVAVHGEEIYCKSCYGKKYGPKGYGYGQGAGTLSTDKGESLGIKHEEAPGHRPTTNPNASKFAQKIGGSERCPRCSQAVYAAEKVIGAGKSWHKACFRCAKCGKGLESTTLADKDGEIYCKGCYAKNFGPKGFGFGQGAGALVHSE
B15: EDF1 (protein, UniProt O60869 1-148)
chain: MAESDWDTVTVLRKKGPTAAQAKSKQAILAAQRRGEDVETSKKWAAGQNKQHSITKNTAKLDRETEELHHDRVTLEVGKVIQQGRQSKGLTQKDLATKINEKPQVIADYESGRAIPNNQVLGKIERAIGLKLRGKDIGKPIEKGPRAK
B16: HPRT1 (protein, UniProt P00492 1-218)
chain: MATRSPGVVISDDEPGYDLDLFCIPNHYAEDLERVFIPHGLIMDRTERLARDVMKEMGGHHIVALCVLKGGYKFFADLLDYIKALNRNSDRSIPMTVDFIRLKSYCNDQSTGDIKVIGGDDLSTLTGKNVLIVEDIIDTGKTMQTLLSLVRQYNPKMVKVASLLVKRTPRSVGYKPDFVGFEIPDKFVVGYALDYNEYFRDLNHVCVISETGKAKYKA
B17: RACGAP1 (protein, UniProt Q9H0H5 1-632)
chain: MDTMMLNVRNLFEQLVRRVEILSEGNEVQFIQLAKDFEDFRKKWQRTDHELGKYKDLLMKAETERSALDVKLKHARNQVDVEIKRRQRAEADCEKLERQIQLIREMLMCDTSGSIQLSEEQKSALAFLNRGQPSSSNAGNKRLSTIDESGSILSDISFDKTDESLDWDSSLVKTFKLKKREKRRSTSRQFVDGPPGPVKKTRSIGSAVDQGNESIVAKTTVTVPNDGGPIEAVSTIETVPYWTRSRRKTGTLQPWNSDSTLNSRQLEPRTETDSVGTPQSNGGMRLHDFVSKTVIKPESCVPCGKRIKFGKLSLKCRDCRVVSHPECRDRCPLPCIPTLIGTPVKIGEGMLADFVSQTSPMIPSIVVHCVNEIEQRGLTETGLYRISGCDRTVKELKEKFLRVKTVPLLSKVDDIHAICSLLKDFLRNLKEPLLTFRLNRAFMEAAEITDEDNSIAAMYQAVGELPQANRDTLAFLMIHLQRVAQSPHTKMDVANLAKVFGPTIVAHAVPNPDPVTMLQDIKRQPKVVERLLSLPLEYWSQFMMVEQENIDPLHVIENSNAFSTPQTPDIKVSLLGPVTTPEHQLLKTPSSSSLSQRVRSTLTKNTPRFGSKSKSATNLGRQGNFFASPMLK

Molecular target: BioID-BAG3 (UniProt O95817)
Assay: proximity labelling; BioID in human AC16 cardiomyocyte cells: transfected with plasmid expressing BioID-BAG3 for 48 h, biotin for 16 h; LC-MS/MS; BAG3_Biotin vs. BioID vector only, adjusted p < 0.05; effect sizes corrected for biotin alone and for BAG3 over-expression; three replicates

binding	Binder
binds	B1
binds	B2
binds	B3
binds	B4
binds	B5
binds	B6
binds	B7
binds	B8
binds	B9
binds	B10
binds	B11
binds	B12
binds	B13
binds	B14
binds	B15
binds	B16
binds	B17
